This passage reports binding results from article PMC10298792.

Amino acid sequences for entries named in this document (tags omitted). A change or cut given only in a name is not applied to a line headed by its entry.
UniProt Q8K459: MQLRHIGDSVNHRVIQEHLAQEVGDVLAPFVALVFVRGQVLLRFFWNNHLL

Results are given in words; binding and its absence hold for the method and conditions named. For part of these data: In cells and extracts the contact can be indirect. Some results given as binding are weak or reduced against the parent protein; the word gives no strength. Sequences can lack the tags named with a protein.

Experiment [1] has as its target T1, C-terminal His6-tagged human Bak (residues 23–185;C166S) (human) (UniProt Q16611).
T1 sequence: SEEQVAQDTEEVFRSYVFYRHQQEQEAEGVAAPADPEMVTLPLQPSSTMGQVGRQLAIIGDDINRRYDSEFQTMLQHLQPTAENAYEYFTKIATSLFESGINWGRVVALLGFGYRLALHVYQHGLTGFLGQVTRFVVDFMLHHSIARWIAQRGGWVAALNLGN
The experiment in a line: ITC; Pxt1 peptide (0.8 mM) titrated into 80 μM recombinant Bak; no detergent; performed as in ref. 27; both purified. A general note: Isothermal titration calorimetry measures the heat released or taken up as one component is titrated into another.

For experiment [2], the target named is T2, GFP-tagged full-length human Pxt1 (peroxisomal testis-specific 1) (human) (UniProt Q8NFP0).
T2 sequence: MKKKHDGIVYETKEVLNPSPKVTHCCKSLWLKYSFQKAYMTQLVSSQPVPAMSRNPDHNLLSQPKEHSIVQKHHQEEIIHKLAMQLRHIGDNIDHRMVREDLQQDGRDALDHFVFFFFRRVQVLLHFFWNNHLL
Briefly: co-IP; HeLa cells expressing GFP-tagged Pxt1 constructs with transiently expressed HA-Bak or HA-Bax, or with endogenous Bak/Bax; 20 μM z-VAD-fmk before transfection; lysis in 50 mM Tris–HCl pH 7.5, 150 mM NaCl, 0.5% Triton X-100, 1 mM EDTA; anti-GFP or anti-HA antibody overnight at 4°C, protein G agarose; immunoblotting. Background: A western blot detects proteins with antibodies after separation by electrophoresis.

Experiment [3] deals with T1, C-terminal His6-tagged human Bak (residues 23–185;C166S) (human). The experiment in a line: condition: only without Pxt1 BH3 peptide or without CHAPS; SEC; 100 μM Bak without Pxt1 BH3 peptide or without CHAPS; Superdex 75 10/300 GL; both purified.
The target is the same in experiment [4]. The experiment in a line: condition: only without BH3 peptide or without CHAPS; native gel or EMSA; 100 μM Bak incubated for 1 h without BH3 peptide or without CHAPS; both purified. A general note: A gel shift assay detects complexes by their altered migration in electrophoresis.

B1: synthetic human Pxt1(84–101) peptide (peptide, UniProt Q8NFP0 84-101)
peptide: MQLRHIGDNIDHRMVRED
For B1, the binding entry in experiment [1] was “no binding (tested: 0.8 mM peptide titrated into 80 μM Bak)”.

B2: HA-tagged full-length Bak (Bcl-2 antagonist/killer), transiently expressed (protein, UniProt Q16611 1-211)
chain: MASGQGPGPPRQECGEPALPSASEEQVAQDTEEVFRSYVFYRHQQEQEAEGVAAPADPEMVTLPLQPSSTMGQVGRQLAIIGDDINRRYDSEFQTMLQHLQPTAENAYEYFTKIATSLFESGINWGRVVALLGFGYRLALHVYQHGLTGFLGQVTRFVVDFMLHHCIARWIAQRGGWVAALNLGNGPILNVLVVLGVVLLGQFVVRRFFKS
Turning to B2, in experiment [2], the binding result is “binds”.

B3: endogenous Bak of HeLa cells (protein, UniProt Q16611 1-211)
chain: B2 chain
Take B3: the binding result in experiment [2] is listed as “binds”.

B4: synthetic mouse Pxt1(1–18) peptide (peptide, UniProt Q8K459 1-18)
peptide: MQLRHIGDSVNHRVIQEH
Turning to B4, the binding result in experiment [1] is given as “no binding (tested: 0.8 mM peptide titrated into 80 μM Bak)”.

B5: C-terminal His6-tagged human Bak (residues 23–185;C166S) (domain or fragment, UniProt Q16611 23-185)
chain: T1 sequence
For B5, the binding result in experiment [3] and in experiment [4] was “no binding” throughout.
